# According to article PMC9408947:
# Sequences of proteins named here, by UniProt entry; tags and fusion partners are left off. A change or cut given only in a name is not applied to a line headed by its entry. Residues count along the entry.
# UniProt P11021: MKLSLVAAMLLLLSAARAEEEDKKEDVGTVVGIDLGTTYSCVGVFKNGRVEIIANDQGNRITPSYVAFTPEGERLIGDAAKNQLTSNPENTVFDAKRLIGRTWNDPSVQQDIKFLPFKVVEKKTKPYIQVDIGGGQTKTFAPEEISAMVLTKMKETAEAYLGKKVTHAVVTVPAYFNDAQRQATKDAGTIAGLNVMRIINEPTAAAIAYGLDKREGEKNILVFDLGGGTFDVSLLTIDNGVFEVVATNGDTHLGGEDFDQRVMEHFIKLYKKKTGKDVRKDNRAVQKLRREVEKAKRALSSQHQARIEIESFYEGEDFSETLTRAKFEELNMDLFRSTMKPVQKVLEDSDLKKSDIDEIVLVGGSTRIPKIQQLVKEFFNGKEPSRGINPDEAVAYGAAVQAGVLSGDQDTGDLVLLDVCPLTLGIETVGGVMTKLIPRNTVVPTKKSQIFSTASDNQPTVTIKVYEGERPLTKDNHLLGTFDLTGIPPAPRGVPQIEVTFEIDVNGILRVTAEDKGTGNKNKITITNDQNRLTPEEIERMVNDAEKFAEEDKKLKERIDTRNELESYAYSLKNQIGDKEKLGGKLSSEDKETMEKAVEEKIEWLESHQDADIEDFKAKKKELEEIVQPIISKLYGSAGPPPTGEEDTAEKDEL
# UniProt Q49AH0, residues 25-187: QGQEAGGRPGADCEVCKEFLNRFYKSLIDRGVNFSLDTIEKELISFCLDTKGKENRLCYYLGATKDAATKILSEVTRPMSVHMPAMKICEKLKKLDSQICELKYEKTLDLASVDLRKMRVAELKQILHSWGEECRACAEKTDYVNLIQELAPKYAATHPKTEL
# These are yes or no findings as the source states them, for the method shown. Binding seen in cells or lysates may run through a third protein. Binding calls can cover weak binding; strength is not graded here.
# Target: substrate-binding domain of GRP78 (BiFC construct) (UniProt P11021)
# Assay: split reporter; split Venus BiFC; HEK293 cells co-transfected with pEZY BiFC N-Venus and C-Venus plasmids, fixed 20-24 h after transfection, confocal microscopy
substance,measurement,value
"pre-CV-CDNF (full-length CDNF with C-Venus, BiFC construct) (from UniProt Q49AH0 25-187)",binding,binds
